This is one part of the list.

The chains behind the UniProt entries cited, without tags or fusion partners.
UniProt Q0JBA9, entry or part of it: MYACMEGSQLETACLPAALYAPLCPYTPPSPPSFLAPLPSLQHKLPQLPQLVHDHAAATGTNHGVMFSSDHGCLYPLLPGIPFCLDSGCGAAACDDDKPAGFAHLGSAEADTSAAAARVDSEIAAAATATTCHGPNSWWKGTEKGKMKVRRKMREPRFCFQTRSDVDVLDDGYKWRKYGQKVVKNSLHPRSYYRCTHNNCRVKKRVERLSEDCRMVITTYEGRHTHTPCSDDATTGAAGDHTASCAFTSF

The assay deals with OsWRKY34 (Oryza sativa, UniProt Q0JBA9 1-250). Briefly: protein-binding microarray (RPBM); PBS, 2% BSA, 51.3 ng/ul salmon testes DNA, 50 uM zinc acetate, 200 nM TF, 25 C, 1 h; high values mean tight binding. Particulars: protein: recombinant; tags: N-terminal polyhistidine and DsRed monomer fusion (pET32a); label: CyDye5-dUTP incorporated in the synthesized complementary strand; 3' TTTTT single-stranded linker to array surface; dsDNA, one strand shown. In a few lines: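 A custom Agilent array was converted to double-stranded form by primer extension with Cy5-dUTP and blocked with 2% BSA. Protein at 200 nM in PBS with 2% BSA, salmon testes DNA and 50 µM zinc acetate was applied for 1 h at 25 °C, followed by washing. The proteins were polyhistidine–DsRed N-terminal fusions of transcription factors, expressed in E. coli BL21-CodonPlus and Ni–NTA-purified. The binding signal is per-feature fluorescence intensity (arbitrary units) from an Axon 4000B scanner.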
“ATTTACCGTGGCTAAGCAAGCCCTGATCACACGTTCCACACGGAGTCACCTAGTGCAG”: the binding signal is 8060 fluorescence intensity (a.u.).

Regarding “CGGTTTTGTCCTACGTGACAGTTGACTTGCTGAGTCAACACGGAGTCACCTAGTGCAG”, the binding signal was 9350 fluorescence intensity (a.u.). As for “TGCATGTGTTCTATTTACAGTTGATAAGTGTATTGTGTATCGGAGTCACCTAGTGCAG”, the binding signal is 9630 fluorescence intensity (a.u.). As for “CCCTTTATTTGCTTATGATTTGTATTAGTTTGGTCAATATCGGAGTCACCTAGTGCAG”, the binding signal was 11700 fluorescence intensity (a.u.). The value for “CGCGCGCGTCGTCGTCTCCCTCACCACTCGCCCCGATCGACGGAGTCACCTAGTGCAG” was 8550 fluorescence intensity (a.u.); that for “GCAATTTTTTTTCCACGTGATACCATTCTTGTGTTTTACACGGAGTCACCTAGTGCAG” was 8700 fluorescence intensity (a.u.); that for “AATCTTAGTTTTGGGTTCATTTGCCAGCTTCTAATCTTCCCGGAGTCACCTAGTGCAG” was 11600 fluorescence intensity (a.u.). The value for “GACCTTATTTGCATTGATTGACCTTATTTGCATTGATTTTCGGAGTCACCTAGTGCAG” was 19700 fluorescence intensity (a.u.); that for “GAAAATATTGTTAAACTGACCTTTTTTGACAGTCATCTTCCGGAGTCACCTAGTGCAG” was 10100 fluorescence intensity (a.u.); that for “AGCCAGTTTTCTCCACCCTCGTTTTCCGCGCACATGTTTTCGGAGTCACCTAGTGCAG” was 17600 fluorescence intensity (a.u.). As for “ATTTGTGTGCTCAAGGTCTGTACTTACAGTGCTCTACTTTCGGAGTCACCTAGTGCAG”, the binding signal is 8180 fluorescence intensity (a.u.).

With “CAAGTTAGTGACTGCATGGTATCTCATCCATCCATTTTCCCGGAGTCACCTAGTGCAG”, the binding signal was 9180 fluorescence intensity (a.u.).

Take “CTGTTCGTCGTGTATTGCTCCCTCTGTGCACGATTTGTTTCGGAGTCACCTAGTGCAG”: the binding signal was 11600 fluorescence intensity (a.u.).

Consider “AGCTGCATATGTCTGTGTGTCTCAGTACCATCACAGTATCCGGAGTCACCTAGTGCAG”, for which the binding signal is 8270 fluorescence intensity (a.u.). As for “AACACTGCTAGTCTGTTACTCTGTTAGGCTGCTGATTTTACGGAGTCACCTAGTGCAG”, the figure is 8320 fluorescence intensity (a.u.); as for “TCGTTTAATCATGCTCTAACTCGTAAATTTAACTTCAAAACGGAGTCACCTAGTGCAG”, 8280 fluorescence intensity (a.u.); as for “TCACGTCCGTTTTTATAACTTGCTTAACAGGATCTCTATACGGAGTCACCTAGTGCAG”, 8030 fluorescence intensity (a.u.). The value for “GAAATTTTTCCCAGTTGTTTTCATTGCTTTTGGAGAGTTTCGGAGTCACCTAGTGCAG” was 9670 fluorescence intensity (a.u.). As for “TTGATTTCATACCACTTTCTCTCCTTCCCGTCATTTTTTCCGGAGTCACCTAGTGCAG”, the figure is 8070 fluorescence intensity (a.u.). With “CCATCACTCCGGCACCCTCATGTCCACCGCCGACGGTCGTCGGAGTCACCTAGTGCAG”, the binding signal was 9110 fluorescence intensity (a.u.). As for “TGGCAAGCAGGTCTATTTGGGTAAGTTTCATTCATGTCCACGGAGTCACCTAGTGCAG”, the figure is 8520 fluorescence intensity (a.u.); as for “ACTCTGCCTGCCATTCACATGATCCAACCAGTCCCCATTGCGGAGTCACCTAGTGCAG”, 8730 fluorescence intensity (a.u.). The value for “GGCGGCTTCTTCTCTAGGGTTCGTCTCGACTCGACTCGTCCGGAGTCACCTAGTGCAG” was 9810 fluorescence intensity (a.u.); that for “TGCTTGCCGTTCGTTCGTGTGTGTGTGCGTGTGCGTAAGCCGGAGTCACCTAGTGCAG” was 11200 fluorescence intensity (a.u.).

Take “ACTTTGAATTGTTTTCTTTTGGGCCTTATCCAGATACCTGCGGAGTCACCTAGTGCAG”: the binding signal is 9160 fluorescence intensity (a.u.). As for “TTCGTTCAAATCCAGGTATTTTAGCGTGCAAGTCTAGTTACGGAGTCACCTAGTGCAG”, the figure is 9660 fluorescence intensity (a.u.). The value for “CGCCACAGATTCACACCGCCTCGCCCCAAGCCACACACACCGGAGTCACCTAGTGCAG” was 10400 fluorescence intensity (a.u.); that for “TCCACCACATCCCACGCTTTTTACTGCCGCACACATAAGACGGAGTCACCTAGTGCAG” was 8680 fluorescence intensity (a.u.). With “GCAGCCGCCGCCACCGCCTCCTCGCACCTCGTTTCTTCCACGGAGTCACCTAGTGCAG”, the binding signal was 15100 fluorescence intensity (a.u.). For the sequence “GGATCGAATTGCCACATAAACGCCACGTCAATGCCACATCCGGAGTCACCTAGTGCAG”, the binding signal is 8380 fluorescence intensity (a.u.). With “AGTAGTACTCATTCAATTACAACCATCCACCACTCACTTTCGGAGTCACCTAGTGCAG”, the binding signal was 12400 fluorescence intensity (a.u.). As for “CTCCTCGCCTTCTTCTCCATCTCCATCTCGCATCTTCTCTCGGAGTCACCTAGTGCAG”, the figure is 11400 fluorescence intensity (a.u.); as for “TTCGATGTTGCTTTTCGACTTTCGGTTGTTGGCCGGGGATCGGAGTCACCTAGTGCAG”, 9370 fluorescence intensity (a.u.).

As for “CTCTCTCCGTATTATAATGTATGATGCCGTTGACTTTTTGCGGAGTCACCTAGTGCAG”, the binding signal was 35200 fluorescence intensity (a.u.). The value for “ATACTAATGCTACTACAGCTGTACCCTGTATATATAGTTCCGGAGTCACCTAGTGCAG” was 9360 fluorescence intensity (a.u.).

Consider “CCTCAAAATTGCAGGGGCGGAGATGGGGATGGTAGTTTACCGGAGTCACCTAGTGCAG”, for which the binding signal was 8620 fluorescence intensity (a.u.). The value for “AACCCTGGGTTTCCGTGTCTAACGTTTGACCGTCCGCCTTCGGAGTCACCTAGTGCAG” was 12000 fluorescence intensity (a.u.); that for “CATCCACCTCACCGTCCGCCTGTGTGGCGCTGCTTTTTTCCGGAGTCACCTAGTGCAG” was 11500 fluorescence intensity (a.u.). “CCCACCCACCCACTGCATTCATCTCTCCTCTCTATCTCTTCGGAGTCACCTAGTGCAG”: the binding signal was 14100 fluorescence intensity (a.u.).

With “GGTGTTGACCCGGTCTTTATCCAATATGACGCTTATATGGCGGAGTCACCTAGTGCAG”, the binding signal was 9070 fluorescence intensity (a.u.).

Consider “ATTTGTTTGTTTTTTTAATAAATGATGTTGTTGACTTTTACGGAGTCACCTAGTGCAG”, for which the binding signal was 9030 fluorescence intensity (a.u.).

For “TCCGCCCGACCGCCCCTACCGCAACCTGTAGCCGCTGATGCGGAGTCACCTAGTGCAG”, the binding signal is 11100 fluorescence intensity (a.u.).

These data come from paper PMC7819943, “Rice protein-binding microarrays: a tool to detect cis-acting elements near promoter regions in rice”.
